Experimental data from article PMC8773746.
No constants are given. Whether binding was seen depends on the method and setting. Some entries that bind do so weakly or less than the wild type.

Tests used:
[1] = biological target: Y88R mutant of the protein S100P (human) (UniProt P25815); experiment: cross-linking; 0.7 mg/mL protein with 0.02% glutaric aldehyde, 20 °C, 16 h, then SDS-PAGE with Coomassie staining; pH 7.4, 10 mM tricine-KOH, 1 mM EDTA/CaCl2; data not shown; both purified
[2] = biological target: Human S100P protein (wild-type) (human) (UniProt P25815); experiment: as above

Row | binding [1] | binding [2] | Binder
1 | binds | – | Y88R mutant of the protein S100P (protein, UniProt P25815 1-94) MTELETAMGMIIDVFSRYSGSEGSTQTLTKGELKVLMEKELPGFLQSGKDKDAVDKLLKDLDANGDAQVDFSEFIVFVAAITSACHKRFEKAGL
2 | – | binds | Human S100P protein (wild-type) (protein, UniProt P25815 1-94) MTELETAMGMIIDVFSRYSGSEGSTQTLTKGELKVLMEKELPGFLQSGKDKDAVDKLLKDLDANGDAQVDFSEFIVFVAAITSACHKYFEKAGL
